Test results as given in PMC9085827.

Protein sequences, listed by entry. Tags and fused reporters are not part of them. Residues count along the entry.
UniProt Q84TH9, 578-659: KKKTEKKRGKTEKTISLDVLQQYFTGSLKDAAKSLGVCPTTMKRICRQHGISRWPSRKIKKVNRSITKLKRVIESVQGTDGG

Biological target: NLP7 RWP-RK DNA-binding domain (Arabidopsis thaliana) (UniProt Q84TH9)
Assay: EMSA
Conditions: 20 mM HEPES-KOH pH 7.6, 3 mM MgCl2, 2 mM DTT, 0.5 mM EDTA, 30 mM KCl, 30 mM NaCl, 10% glycerol, 0.5 ug poly[d(I-C)], room temperature; recombinant protein; protein details: His; label: biotin; probe letters rebuilt from the primers and the genome

| Sequence | binding result |
| --- | --- |
| GCAAGCTTGTCAGCATGCGGAACTTTAAATATGTGTTCATACATGCACCAAGCATGACCGACTAGAAGAATCATGGAAAAAGAACATTCACTTTTCCATGACTCGTGGCCAATGCAAATCTTCGCACAGCTGCAGTCTAGAC (double strand) [AO promoter P3] | no binding |
| GTCTAGACTGCAGCTGTGCGACTTTTTCCATGATTCTTCTAGTCGGTCATGCTTGGTGCATGTATGAACACATATTTAAAGTTCTATACAAGTTGTTAGAATTCTTTTAAATTTAATTTGCTCCGCATGCTGACAAGCTTGC (double strand) [AO promoter P4] | no binding |
| GTCTAGACTGCAGCTGTGCGATTTTCAGTTGTCTGATGGAAAATTCAGAAGCCACCACTTACAAATCAAAAGTATAAAAAAAGACTCAAAAGAAGACTCCAAAATCCAAATAGTTTTTCTCTCCGCATGCTGACAAGCTTGC (double strand) [AO promoter P1] | no binding |
| GCAAGCTTGTCAGCATGCGGAAAATAACAACGGTAGCTCAAGATGTGTGACCATGATTTTCCAAAACTAAAACTAAAAAAATAAATAAAGCAAATTAAATTTAAAAGAATTCTAACTCGCACAGCTGCAGTCTAGAC (double strand) [AO promoter P5] | no binding |

For at least one entry, the source does not settle the construct or the ends of the probe. No signal at the amounts used counts as a negative.
